Structures can show the parent of a compound that is named as a salt. This is one part of the list. Many values rest on one well or one pass, so single values are uncertain.

This test deals with A2780. The experiment in a line: cell growth inhibition ratio vs untreated control (CCK8); higher = stronger inhibition of cell viability. To be noted: 10 µM; 48 h. The method, then: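 Natural product library (Topscience) screened at 10 µM final concentration for 48 h on ovarian cancer A2780 cells and patient-derived ovarian cancer cells (PDC) in 96-well plates; viability read by CCK8 and reported as inhibition ratio (%) relative to untreated control. Single-dose primary screen.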
As for `CC(C)=CCC[C@@](O)(CO[C@@H]1O[C@H](CO)[C@@H](O)[C@H](O)[C@H]1O)[C@H]1CC[C@]2(C)[C@@H]1CC[C@@H]1[C@@]3(C=O)CC[C@H](O[C@@H]4OC[C@H](O)[C@H](O[C@@H]5OC[C@@H](O)[C@H](O)[C@H]5O)[C@H]4O[C@@H]4O[C@@H](C)[C@H](O)[C@@H](O)[C@H]4O)C(C)(C)[C@@H]3CC[C@]12C` [Gypenoside XLIX], the “cell growth inhibition ratio” value was -6.06%.

Consider `CC(C)c1cccc(O)c(=O)c1` [β-thujaplicin], for which the “cell growth inhibition ratio” value came to 59.6%.

Take `Nc1ccn([C@@H]2O[C@H](CO)[C@@H](O)[C@H]2O)c(=O)n1` [Cytidine]: the “cell growth inhibition ratio” value turned out to be 8.12%.

Take `Cc1c(S(=O)(=O)O)oc2c1C(=O)C(=O)c1c-2ccc2c1CCCC2(C)C` [Tanshinone IIA-sulfonic sodium]: the “cell growth inhibition ratio” value came to 25.6%.

As to `C=C1C(=O)O[C@@H]2/C=C(\C)CC/C=C(\C)CC[C@@H]12` [Costunolide], the “cell growth inhibition ratio” value turned out to be 11.9%.

`O=C1C[C@@H](c2ccc(O)cc2)Oc2cc(O)ccc21` [Liquiritigenin]: the “cell growth inhibition ratio” value was -33.7%.

As to `NC(=O)c1ccc[n+]([C@@H]2O[C@H](COP(=O)([O-])OP(=O)(O)OC[C@H]3O[C@@H](n4cnc5c(N)ncnc54)[C@H](O)[C@@H]3O)[C@@H](O)[C@H]2O)c1` [Cozymasei(NAD+)], the “cell growth inhibition ratio” value is -1.94%.

Turning to `O=C(/C=C/c1ccc(O)c(O)c1)O[C@H](Cc1ccc(O)c(O)c1)C(=O)O` [Rosmarinic acid], the “cell growth inhibition ratio” value was found to be 84.1%.

In the case of `CO[C@@]12[C@H](COC(N)=O)C3=C(C(=O)C(C)=C(N)C3=O)N1C[C@@H]1N[C@@H]12` [Mitomycin C], the “cell growth inhibition ratio” value came to 91.7%.

Take `CCOC(=O)c1ccc(O)c(OC)c1` [Ethyl Vanillate]: the “cell growth inhibition ratio” value was -15%.

In the case of `C=C(C)[C@@H]1CC[C@]2(C)[C@H](CC=C3[C@@H]4[C@@H](C)[C@H](C)CC[C@]4(C)CC[C@]32C)[C@@]1(C)CCC(=O)O` [Roburic acid], the “cell growth inhibition ratio” value worked out at 23.8%.

Regarding `O=c1[nH]cnc2c1ncn2[C@@H]1O[C@H](CO)[C@@H](O)[C@H]1O` [Inosine], the “cell growth inhibition ratio” value amounted to 13.2%.

In the case of `O=C1c2cccc(O)c2C(=O)c2c(O)cccc21` [Antrapurol], the “cell growth inhibition ratio” value was 22.6%.

Regarding `COc1ccc(-c2oc3c(CC=C(C)C)c(O)cc(O)c3c(=O)c2O)cc1` [Icaritin], the “cell growth inhibition ratio” value came out at 50.8%.

For `COc1cc2c3cc1Oc1c(OC)c(OC)cc4c1[C@@H](Cc1ccc(O)c(c1)Oc1ccc(cc1)C[C@@H]3N(C)CC2)N(C)CC4` [Berbamine dihydrochloride], the “cell growth inhibition ratio” value was 43.3%.

With `C=C1C(=O)[C@]23[C@H](CC[C@@H]1[C@@H]2O)[C@]12CO[C@@]3(O)[C@H](O)[C@H]1C(C)(C)CC[C@@H]2O` [Rubescensin A], the “cell growth inhibition ratio” value was determined as 66.3%.

As for `Oc1nc(O)c2nc(O)[nH]c2n1`, the “cell growth inhibition ratio” value was -0.257%.

`COc1cc(O)c2c(c1)oc(=O)c1c3cc(O)c(O)cc3oc21` [Wedelolactone]: the “cell growth inhibition ratio” value was 51.7%.

In the case of `COc1c2occc2cc2ccc(=O)oc12` [8-Methoxypsoralen], the “cell growth inhibition ratio” value stood at 2.14%.

For the compound `O=c1ccc2cc(O)c(O)cc2o1` [Esculetin], the “cell growth inhibition ratio” value turned out to be 4.61%.

Take `Cc1cc(O)c2c(c1)C(=O)c1cccc(O)c1C2=O` [Chrysophanic Acid]: the “cell growth inhibition ratio” value was found to be 7.94%.

As for `OC[C@H]1O[C@@](CO)(O[C@H]2O[C@H](CO)[C@@H](O)[C@H](O)[C@H]2O)[C@@H](O[C@H]2O[C@H](CO)[C@@H](O)[C@H](O)[C@H]2O)[C@@H]1O` [Melezitose], the “cell growth inhibition ratio” value is 9.22%.

With `CC(C)=CCC[C@](C)(O[C@@H]1O[C@H](CO[C@@H]2O[C@H](CO)[C@@H](O)[C@H](O)[C@H]2O)[C@@H](O)[C@H](O)[C@H]1O)[C@H]1CC[C@]2(C)[C@@H]1[C@H](O)C[C@@H]1[C@@]3(C)CC[C@H](O[C@@H]4O[C@H](CO)[C@@H](O)[C@H](O)[C@H]4O)C(C)(C)[C@@H]3CC[C@]12C` [Gypenoside XVII], the “cell growth inhibition ratio” value was 17.7%.

Consider `C/C=C/c1ccc(OC)cc1` [Trans-Anethole], for which the “cell growth inhibition ratio” value came to 19.4%.

On to `C=C(C)[C@@H]1CC[C@]2(C(=O)O)CC[C@]3(C)[C@H](CC[C@@H]4[C@@]5(C)CC[C@H](O)C(C)(C)[C@@H]5CC[C@]43C)[C@@H]12` [Betulinic acid], for which the “cell growth inhibition ratio” value came to 7.15%.

As for `NC(=O)c1cccnc1` [Nicotinamide], the “cell growth inhibition ratio” value was -3.16%.

Regarding `NC(=O)CC[C@H](N)C(=O)O` [L-Glutamine], the “cell growth inhibition ratio” value was 3.86%.

In the case of `CC(C)(O[C@@H]1O[C@H](CO)[C@@H](O)[C@H](O)[C@H]1O)[C@H]1Cc2cc3ccc(=O)oc3cc2O1` [Nodakenin], the “cell growth inhibition ratio” value worked out at 7.78%.

Regarding `CC12CCC(CC1=O)C2(C)C` [D-Camphor], the “cell growth inhibition ratio” value came to 2.93%.

For the compound `C=C[C@H]1[C@H](O[C@@H]2O[C@H](CO)[C@@H](O)[C@H](O)[C@H]2O)OC=C2C(=O)OCC[C@]21O` [Swertiamarin], the “cell growth inhibition ratio” value came to 20.9%.

Regarding `Nc1ncnc2c1ncn2[C@@H]1O[C@H](CO)C[C@H]1O` [Cordycepin], the “cell growth inhibition ratio” value was 10.4%.

For the compound `c1coc(CNc2ncnc3[nH]cnc23)c1` [Kinetin], the “cell growth inhibition ratio” value came out at 2.22%.

For `N[C@@H](Cc1c[nH]c2ccc(O)cc12)C(=O)O` [L-5-Hydroxytryptophan], the “cell growth inhibition ratio” value came to 10.2%.

Take `NC(N)=O`: the “cell growth inhibition ratio” value was -1.56%.

As for `CC(=O)OC/C=C(C)/C=C/C=C(C)/C=C/C1=C(C)CCCC1(C)C` [Retinyl acetate], the “cell growth inhibition ratio” value is -16.1%.

Take `O=C(/C=C/c1ccc(O)c(O)c1)O[C@@H]1C[C@](O)(C(=O)O)C[C@@H](O)[C@H]1O` [Chlorogenic Acid]: the “cell growth inhibition ratio” value amounted to 7%.

`C[C@]12CC[C@@H]3c4ccc(O)cc4CC[C@H]3[C@@H]1C[C@@H](O)[C@@H]2O` [Estriol]: the “cell growth inhibition ratio” value is 3.81%.

`CC(C)CCCCC(=O)N[C@@H](CCN)C(=O)N[C@@H](CN[C@@H](CCN)C(=O)N[C@H]1CCNC(=O)[C@H]([C@@H](C)O)NC(=O)[C@H](CCN)NC(=O)[C@H](CCN)NC(=O)[C@H](CC(C)C)NC(=O)[C@@H](CC(C)C)NC(=O)[C@H](CCN)NC1=O)[C@@H](C)O.CCC(C)CCCCC(=O)N[C@@H](CCN)C(=O)N[C@@H](CN[C@@H](CCN)C(=O)N[C@H]1CCNC(=O)[C@H]([C@@H](C)O)NC(=O)[C@H](CCN)NC(=O)[C@H](CCN)NC(=O)[C@H](CC(C)C)NC(=O)[C@@H](CC(C)C)NC(=O)[C@H](CCN)NC1=O)[C@@H](C)O` (stereo not given in full) [Colistin sulfate]: the “cell growth inhibition ratio” value is -4.58%.

As for `COc1c(C)c2c(c(O)c1C/C=C(\C)CCC(=O)O)C(=O)OC2` [Mycophenolic acid], the “cell growth inhibition ratio” value stood at 80.5%.

On to `OC[C@H]1O[C@@H](Oc2c(O)cc(O)cc2/C=C/c2ccc(O)cc2)[C@H](O)[C@@H](O)[C@@H]1O` [Astragalus polyphenols], for which the “cell growth inhibition ratio” value was -3%.
